In PMC10753161:
No constants are given. Whether binding was seen depends on the method and setting. Binding calls can cover weak binding; strength is not graded here. For some assays here: Tags and fused reporters may be left off the sequences shown. For some assays here: Binding seen in cells or lysates may run through a third protein.

T1: BD-StSN2 (potato (Solanum tuberosum)) (UniProt Q93X17)
T1 sequence: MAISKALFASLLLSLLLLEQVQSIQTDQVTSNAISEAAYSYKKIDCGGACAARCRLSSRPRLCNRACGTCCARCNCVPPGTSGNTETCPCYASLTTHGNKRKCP


Tests used:
[1] = target: T1, BD-StSN2 (potato (Solanum tuberosum)); assay: two-hybrid; pGBKT7 (BD) and pGADT7 (AD) fusions in AH109 yeast; growth on SD-Trp/Leu/His/Ade (quadruple dropout) in a dilution series
[2] = target: StBIN2 (endogenous, potato tuber) (potato (endogenous in tuber budding eyes)); assay: co-IP; total protein from budding eyes of potato tubers; anti-StBIN2 antibody and protein A magnetic beads, 6-8 h at 4°C, washed with 1x PBS; StSN2 detected by blot

binding [1]	binding [2]	Molecule
binds		AD-StBIN2 (potato (Solanum tuberosum)) (enzyme)
	binds	StSN2 (endogenous, potato tuber) (protein, UniProt Q93X17 39-104) YSYKKIDCGGACAARCRLSSRPRLCNRACGTCCARCNCVPPGTSGNTETCPCYASLTTHGNKRKCP
